# Tested on: HUVEC cells
# Experiment: WST-1 cell proliferation assay
# Assay type: cell-based, human
# Method: Figure 4 PsA Potently Activates HUVEC Proliferation. […] Note saturation kinetics. Cytotoxicity is illustrated as a vertical dashed line at 1.5 × 10^−5 M in all vehicles tested. The percentage increase was calculated as [100 × (T/C)] where T/C is defined as […]. Data are presented as mean ± SEM (n = 16).
# For each experiment cells were split at 80% confluence. All experiments were conducted between generations 4 and 10.
# HUVEC were harvested from a T-75 plate by trypsinization and resuspended in EGM-2 complete culture media. Cells were plated at 500 cells per well of a 96-well plate and incubated overnight at 37 °C in a 5% CO2 atmosphere. EGM-2 complete culture media was removed and replaced with starvation media for 8 h. During this time, drug dilutions were prepared in growth factor depleted media. Starvation media was replaced with drug dilution in growth factor depleted media and incubated at 37 °C in a 5% CO2 atmosphere. After 41 h, 10 µL of WST-1 reagent was added to each well and incubated for 1 h. Plates were then read on a multiplate reader at 450 nm with background reference of 650 nm.
compound,measurement,setting,value
"CC(C)=C[C@H]1C[C@H](C)[C@H]2CC[C@H](C)c3c(O[C@@H]4OC[C@@H](O)[C@H](O)[C@H]4O)c(O)c(C)c1c32 [Analog 4, Pseudopterosin A]",nH,PsA in 0.016% Cremophor EL,2.51
same,nH,PsA in 0.05% HPβCD,0.95
same,estimated cell count,"after 5 days, 1.0 × 10^−7 M PsA, estimated from Nt = Ninitial e^(rate × time)","125,000"

# Reference: paper PMC3806459, “Cyclodextrin Formulation of the Marine Natural Product Pseudopterosin A Uncovers Optimal Pharmacodynamics in Proliferation Studies of Human Umbilical Vein Endothelial Cells” (Marine Drugs, 2013)
